Laboratory results published in paper PMC3554521.
These are yes or no findings as the source states them, for the method shown. Some entries that bind do so weakly or less than the wild type.

Sequences of proteins named here, by UniProt entry; tags and fusion partners are left off. A change or cut given only in a name is not applied to a line headed by its entry.
UniProt P10629: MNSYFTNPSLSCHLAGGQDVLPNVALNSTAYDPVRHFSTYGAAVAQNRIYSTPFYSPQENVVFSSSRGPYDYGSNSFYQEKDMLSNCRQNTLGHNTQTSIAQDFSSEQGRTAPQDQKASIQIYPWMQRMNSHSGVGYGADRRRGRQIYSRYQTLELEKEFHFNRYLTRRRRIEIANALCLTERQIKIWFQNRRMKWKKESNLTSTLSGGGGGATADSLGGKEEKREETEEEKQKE

Molecular target: T1, Pbx3 (UniProt O35317)
T1 sequence: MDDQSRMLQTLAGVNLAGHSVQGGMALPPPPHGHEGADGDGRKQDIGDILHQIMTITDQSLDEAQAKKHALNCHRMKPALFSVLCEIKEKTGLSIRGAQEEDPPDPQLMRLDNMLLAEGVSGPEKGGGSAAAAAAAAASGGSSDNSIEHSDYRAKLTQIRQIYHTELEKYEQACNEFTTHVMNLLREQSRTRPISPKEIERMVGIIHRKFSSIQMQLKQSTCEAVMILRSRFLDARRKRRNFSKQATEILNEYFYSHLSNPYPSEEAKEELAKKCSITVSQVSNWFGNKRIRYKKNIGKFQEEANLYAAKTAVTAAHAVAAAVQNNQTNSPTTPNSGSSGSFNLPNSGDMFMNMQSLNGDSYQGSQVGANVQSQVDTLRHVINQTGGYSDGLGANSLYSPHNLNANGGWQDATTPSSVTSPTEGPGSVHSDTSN
Assay: native gel or EMSA; gel mobility shift: recombinant Hoxc6 derivatives and Pbx3 together on IRDye-800 labelled DNA probes (Foxp1/hs1149 site, Fkh250con*); cooperative binding on DNA; 50 mM Tris-HCl pH 7.5, 250 mM NaCl, 5 mM MgCl2, 20% glycerol, 2.5 mM DTT, 2.5 mM EDTA, poly dIdC, 0.1% BSA, 20 min at room temperature; 0.5-2 pmol protein per reaction; both purified

binding	Substance
binds	Hoxc6 (from UniProt P10629 1-235)
binds	Hoxc6NΔ91 (from UniProt P10629 92-235) (domain or fragment)
binds	Hoxc6NΔ111 (from UniProt P10629 112-235) (domain or fragment)
